# Experimental data from PubChem BioAssay AID1347075 (National Center for Advancing Translational Sciences (NCATS), 2019).
# About 5,500 (1.4%) of roughly 400,000 compounds were called active. Inconclusive results, whose numbers are uncertain, are shown with a selection of clear calls. Calls follow the shape of the dose curve; as a rule, active = well fitted cell-killing curve with a large enough effect; inconclusive = small, poorly fitted or top-dose-only effect, or effect the other way; inactive = flat fitted curve, though single readings scatter. A potency beside an inconclusive call is a rough fit, not a confirmed value.
# Experiment: qHTS assay for MDR1-selective chemotherapeutics: Primary screen using the parental adenocarcinoma cell KB-3-1; also: nearly all actives have a fitted effect of over 60% in size
# Conditions: KB-3-1 viability, CellTiter-Glo ATP luminescence, 72 h; activity change, negative = cytotoxic: at 46.1 µM (top of the series)
# Outline: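 Parental KB-3-1 viability, qHTS format: 72 h compound exposure, 37 °C; CellTiter-Glo; media-only wells and DMSO plates as controls; concentration-effect fits on corrected data.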
# % is scaled to controls: 0 for no effect and ±100 for the full control effect; potency is read from the fitted curve at half-maximal effect.
Structure (SMILES),Potency,"activity change, negative = cytotoxic"
Cc1ncc([N+](=O)[O-])n1CCOC(=O)c1ccccc1,"inconclusive: 32.6 µM [cytotoxic, single point]",–
CCCCn1nnnc1C(c1cc2ccccc2o1)N(CCN(C)C)Cc1ccccc1 (centres undefined),"inconclusive: 29.1 µM [cytotoxic, single point]",–
O=C(CCc1nc2ccccc2c(=O)[nH]1)N1CCCc2ccccc21,"inconclusive: 29.1 µM [cytotoxic, single point]",–
CCN(CC)CCOc1ccc2c(c1)C(=NNC(=O)c1ccccn1)c1cc(OCCN(CC)CC)ccc1-2,active: 14.6 µM,–
Cc1ccc(N(CC(=O)N2CCN(c3cc(Cl)ccc3C)CC2)S(=O)(=O)c2c(C)noc2C)cc1,"inconclusive: 29.1 µM [cytotoxic, single point]",–
COc1cc(SC)ccc1C(=O)NC1CCCc2ccccc21 (centres undefined),"inconclusive: 29.1 µM [cytotoxic, single point]",–
Cn1cnc([N+](=O)[O-])c1S(=O)(=O)Oc1cccc2ccccc12,"inconclusive: 25.9 µM [cytotoxic, single point]",–
Nc1cc(C(=O)O)c(N)c2c1C(=O)c1ccccc1C2=O,"inconclusive: 23.1 µM [cytotoxic, single point]",–
COc1ccc(-c2c(-c3ccc4c(c3)OCO4)noc2-c2ccsc2)cn1,inactive,–
CCOC(=O)c1ccccc1NC(=O)c1ccc2nccnc2c1,"inconclusive: 0.58 µM [rising, full curve]",–
Cc1noc2ncnc(NCc3ccccc3Cl)c12,"inconclusive: 23.1 µM [cytotoxic, partial curve, poor fit]",–
O=C(Cc1ccc(Br)cc1)NNC(=O)c1cccs1,inactive,–
O=C(NC(=S)NNC(=O)c1ccccc1O)c1ccc(F)cc1,"inconclusive: 20.6 µM [cytotoxic, single point]",–
COc1ccc(N(C)S(=O)(=O)c2ccc(C)cc2)c([N+](=O)[O-])c1,–,inconclusive: -1.6%
CC(C)(C)c1ccc(C(=O)CC(Sc2ccc(Cl)cc2)C(=O)O)cc1 (centres undefined),"inconclusive: 18.4 µM [cytotoxic, single point]",–
CCOC(=O)CC1(CCc2ccccc2)Oc2ccccc2N1S(=O)(=O)c1ccc(C)cc1 (centres undefined),active: 18.4 µM,–
O=C(COC(=O)CNC(=O)c1ccc(Cl)cc1)Nc1ccc(Cl)cn1,"inconclusive: 0.184 µM [rising, full curve]",–
O=C(NCCC1=CCCCC1)c1[nH]c(C(F)(F)F)nc1-c1ccccc1,"inconclusive: 20.6 µM [cytotoxic, single point]",–
COC(=O)c1c(C)[nH]c(C(=O)CSc2ncnc3sc(-c4ccccc4)cc23)c1C,"inconclusive: 29.1 µM [cytotoxic, single point]",–
COc1ccc(NC(=O)C2(C)Cc3c(-c4ccc(C(N)=O)cc4)ccnc3O2)cn1 (centres undefined),"inconclusive: 29.1 µM [cytotoxic, single point]",–
Cc1cc(N(C)Cc2ccccc2)nc(-c2ccccc2)n1,"inconclusive: 18.4 µM [cytotoxic, single point]",–
O=C(N/N=C/c1cccc(OCc2ccccc2)c1)c1ccc(Br)cc1,"inconclusive: 29.1 µM [cytotoxic, single point]",–

# 6 entries from above, ordered by formula weight, largest number first:
Structure (SMILES),Potency,"activity change, negative = cytotoxic"
COc1ccc(NC(=O)C2(C)Cc3c(-c4ccc(C(N)=O)cc4)ccnc3O2)cn1 (centres undefined),"inconclusive: 29.1 µM [cytotoxic, single point]",–
COc1ccc(-c2c(-c3ccc4c(c3)OCO4)noc2-c2ccsc2)cn1,inactive,–
CC(C)(C)c1ccc(C(=O)CC(Sc2ccc(Cl)cc2)C(=O)O)cc1 (centres undefined),"inconclusive: 18.4 µM [cytotoxic, single point]",–
O=C(Cc1ccc(Br)cc1)NNC(=O)c1cccs1,inactive,–
Cn1cnc([N+](=O)[O-])c1S(=O)(=O)Oc1cccc2ccccc12,"inconclusive: 25.9 µM [cytotoxic, single point]",–
Cc1cc(N(C)Cc2ccccc2)nc(-c2ccccc2)n1,"inconclusive: 18.4 µM [cytotoxic, single point]",–

# Next results:

Structure (SMILES),Potency,"activity change, negative = cytotoxic"
CC(C)c1ccc(N=C2N=C(N)c3ccccc32)cc1,"inconclusive: 16.4 µM [cytotoxic, single point]",–
CCOC(=O)c1ccc(-c2ccc3ncnc(NCc4cccs4)c3c2)o1,"inconclusive: 3.66 µM [rising, full curve, poor fit]",–
CN(NS(=O)(=O)c1ccc(Cl)cc1)c1ncc(C(F)(F)F)cc1Cl,inactive,–
CC(=O)Nc1ccc(-c2ccnc3c2CC(C(=O)Nc2cccc(OC(F)(F)F)c2)O3)cc1 (centres undefined),"inconclusive: 29.1 µM [cytotoxic, single point]",–
C[C@H]1COC(=O)[C@@H](Cc2ccc(F)cc2)C/C=C\C[C@@H](CC(=O)N[C@@H](CO)Cc2ccccc2)C(=O)N1,"inconclusive: 29.1 µM [cytotoxic, partial curve, poor fit]",–
CC(C)(C)c1ccc(C(=O)Nc2ccc(O)c3c(=O)cc(-c4ccccc4Cl)oc23)cc1,inactive,–
COCCCN1CC(=O)N2C(c3ccccc3)c3[nH]c4ccccc4c3C[C@H]2C1=O (some centres undefined),inactive,–
COc1cc2c(NC3CCN(C)CC3)nc(N3CCCN(C)CC3)nc2cc1OCCCC(C)C,"inconclusive: 3.66 µM [cytotoxic, partial curve, poor fit]",–
CCOC(=O)[C@]12CCC=C1N(Cc1cccc3ccccc13)C(=O)[C@H](CC(=O)NCc1cccs1)C2,"inconclusive: 29.1 µM [cytotoxic, single point]",–
CN1CCC(Oc2ccccc2Sc2ccccc2)CC1,"inconclusive: 29.1 µM [cytotoxic, single point]",–
COc1cc(OC)c(OC)cc1/C=N/NC(=O)CCc1c(C)n[nH]c1C,inactive,–
C/C(=N\Nc1nc(-c2cc(C)ccc2C)cs1)c1cc2ccccc2oc1=O,inactive,–
CCOc1ccc(CCNC(=O)c2cc3c(=O)n(C)c4ccccc4c3n2C)cc1,inactive,–
O=C(N/N=C/c1cccc(OC(=O)c2cccc(Br)c2)c1)c1cccnc1,"inconclusive: 23.1 µM [cytotoxic, partial curve, poor fit]",–
COC(=O)c1cccc(C23CC4(C2)[C@H](CN(C)[C@@H]4c2ccccc2)C3c2ccc(C(F)(F)F)cc2)c1 (some centres undefined),inactive,–
C=C(C)Cn1c(SCC(=O)Nc2cccc(Cl)c2)nc2sc3c(c2c1=O)CCCC3,inactive,–
Cc1cccc(C)c1NC(=O)c1cc2c(=O)c3ccccc3oc2nc1C(F)(F)F,inactive,–
COc1ccc(Cl)cc1C(=O)NNC(=O)CNC(=O)c1ccc(C)s1,inactive,–
CCc1ccc(C(=O)/C=C/c2cnn(C)c2C)s1,"inconclusive: 35.5 µM [cytotoxic, single point]",–
COc1ccc(CNS(=O)(=O)c2cc(-c3cc(C)no3)ccc2C(C)C)cc1,"inconclusive: 6.51 µM [cytotoxic, full curve, poor fit]",–
CCS(=O)c1ccccc1C(=O)OCC(=O)Nc1cccc(S(=O)(=O)N2CCCCC2)c1 (centres undefined),"inconclusive: 13 µM [cytotoxic, partial curve, poor fit]",–
O=C(NCCC1=CCCCC1)c1ccc2c(c1)N(Cc1ccc(Cl)cc1)C(=O)c1ccccc1S2=O (centres undefined),inactive,–

Structure (SMILES),Potency,"activity change, negative = cytotoxic"
CC[C@H]1OC(=O)[C@H](C)[C@@H](O[C@H]2C[C@@](C)(OC)[C@@H](O)[C@H](C)O2)[C@H](C)[C@@H](O[C@@H]2O[C@H](C)C[C@H](N(C)C)[C@H]2O)[C@](C)(O)C[C@@H](C)CN(C)[C@H](C)[C@@H](O)[C@]1(C)O,inactive,–
Cc1ccc(OCC(=O)c2cc(C)n(CC(F)(F)F)c2C)c([N+](=O)[O-])n1,"inconclusive: 29.1 µM [cytotoxic, single point]",–
Cc1ccc2occ(/C=N/NC(=O)c3ccccc3O)c(=O)c2c1,"inconclusive: 7.31 µM [cytotoxic, partial curve]",–
COc1ccc(-c2cc(C(F)(F)F)nc(NC3CCCC3)n2)cc1OC,inactive,–
N#Cc1c(N)n(C2OC(CO)C(O)C2O)c2ncnc(N)c12 (centres undefined),active: 0.231 µM,–
CCOC(=O)c1cccc(NC(=O)c2cnc(N3CCCCC3)c3ccccc23)c1,"inconclusive: 29.1 µM [cytotoxic, single point]",–
C[C@@H](NC(=O)c1[nH]cnc1C(=O)Nc1ccc(Cl)cc1)c1ccccc1,"inconclusive: 29.1 µM [cytotoxic, single point]",–
COc1ccc(-n2c(=O)c3c(c4cc(OC)ccc4n3C)n(C)c2=O)cc1,inactive,–
COc1ccc(-c2cc(C(=O)NCC(c3ccco3)N(C)C)c3ccccc3n2)cc1OC (centres undefined),"inconclusive: 1.84 µM [rising, full curve, poor fit]",–
CSc1ccc(CN2CCc3c([nH]c4ccccc34)C2)cc1,"inconclusive: 18.4 µM [cytotoxic, single point]",–
CC(C)C(=O)N1CCN(c2ccccc2NC(=O)c2cc([N+](=O)[O-])ccc2N2CCOCC2)CC1,"inconclusive: 23.1 µM [cytotoxic, single point]",–
CCN(Cc1ccc(Cl)s1)C(=O)c1cccc(OCc2c(C)noc2C)c1,"inconclusive: 29.1 µM [cytotoxic, single point]",–
COc1ccc(NC(=O)CSc2nccn2Cc2ccco2)cc1OC,inactive,–
COc1cccc(OC)c1OCc1cc(C2C3CCCC=C3C(C#N)=C(N)C2(C#N)C#N)c(C)cc1C (centres undefined),"inconclusive: 29.1 µM [cytotoxic, single point]",–
Cc1cc(C(=O)COc2cccc(-n3cnnn3)c2)c(C)n1-c1ccccc1,"inconclusive: 18.4 µM [cytotoxic, partial curve, poor fit]",–
O=C(C[n+]1cccc(CNC(=O)c2ccc(OC(F)F)cc2)c1)Nc1cc(C(F)(F)F)ccc1Cl,"inconclusive: 29.1 µM [cytotoxic, single point]",–
Cc1ccc(NC(=O)c2ccc([N+](=O)[O-])o2)cc1C,active: 18.4 µM,–
CCCCNC(=O)C1CCCN(S(=O)(=O)c2ccc(S(=O)(=O)NCC(C)C)cc2)C1 (centres undefined),"inconclusive: 20.6 µM [cytotoxic, partial curve, poor fit]",–
CN1C(=O)NC2C1N(S(C)(=O)=O)CCN2S(C)(=O)=O (centres undefined),"inconclusive: 0.0146 µM [rising, full curve]",–
COc1cc(C(=O)Nc2sc3c(c2C(=O)O)CCC(C)C3)cc(OC)c1OC (centres undefined),"inconclusive: 13 µM [cytotoxic, partial curve, poor fit]",–
